Paper PMC7359353, “Rab27a co-ordinates actin-dependent transport by controlling organelle-associated motors and track assembly proteins” (Nature Communications, 2020)
Results are given in words; binding and its absence hold for the method and conditions named. In cells and extracts the contact can be indirect. Some results given as binding are weak or reduced against the parent protein; the word gives no strength. Where a sequence is shown, tags or fusion partners need not be part of it. Each block holds one molecule with its values, some of them ahead of it.

Chains of the proteins cited; added tags and fusions are not shown. Lines headed by an entry give the natural chain unless they say otherwise; changes in a name come on top. A line that says so, or that is headed by a name, gives the form on record, which may keep a tag or linker.
Myc-epitope-tagged SPIRE1 (Q08AE8-2, form named): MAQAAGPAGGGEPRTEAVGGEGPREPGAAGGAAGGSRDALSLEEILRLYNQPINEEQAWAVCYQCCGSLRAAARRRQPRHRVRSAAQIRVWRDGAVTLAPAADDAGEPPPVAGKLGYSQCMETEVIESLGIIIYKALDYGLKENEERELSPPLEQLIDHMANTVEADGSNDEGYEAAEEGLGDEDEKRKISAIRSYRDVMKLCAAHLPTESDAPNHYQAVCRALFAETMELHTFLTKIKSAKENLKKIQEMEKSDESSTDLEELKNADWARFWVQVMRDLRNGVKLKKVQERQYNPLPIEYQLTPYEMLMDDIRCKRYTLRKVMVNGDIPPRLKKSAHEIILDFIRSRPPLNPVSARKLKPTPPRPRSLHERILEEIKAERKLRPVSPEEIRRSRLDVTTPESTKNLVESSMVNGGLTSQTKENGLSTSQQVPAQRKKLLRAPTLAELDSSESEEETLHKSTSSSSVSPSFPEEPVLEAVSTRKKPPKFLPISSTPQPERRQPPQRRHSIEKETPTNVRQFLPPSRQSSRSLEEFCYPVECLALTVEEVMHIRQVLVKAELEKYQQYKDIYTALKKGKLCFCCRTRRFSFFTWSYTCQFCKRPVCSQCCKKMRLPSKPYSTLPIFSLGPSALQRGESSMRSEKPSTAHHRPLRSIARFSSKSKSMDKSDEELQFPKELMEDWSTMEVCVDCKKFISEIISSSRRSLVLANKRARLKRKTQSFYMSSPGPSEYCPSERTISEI

Target: T1, GST-Rab27a-Q78L (UniProt P23640 1-221, Q78L)
T1 construct: Rab27a; rat Rab27a is stated only for the BiFC constructs; also called GTP-locked Rab27a-Q78L; active Rab27a-Q78L; source: E. coli Rosetta, purified (GSH-Sepharose 4B, size-exclusion chromatography)
T1 sequence (looked up): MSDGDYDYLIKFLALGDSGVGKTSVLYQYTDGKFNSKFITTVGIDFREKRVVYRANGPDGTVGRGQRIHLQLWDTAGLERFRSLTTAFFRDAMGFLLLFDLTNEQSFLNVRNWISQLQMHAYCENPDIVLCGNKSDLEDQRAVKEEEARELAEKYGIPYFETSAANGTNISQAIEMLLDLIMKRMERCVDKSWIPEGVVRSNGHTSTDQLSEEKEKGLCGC
Experiment: pull-down; 50 µg GST-Rab27a (Q78L or T23N) coupled to GSH-Sepharose 4B beads, incubated with HEK293 cell lysates 2 h at 4 °C; 25 mM Tris-HCl pH 7.4, 150 mM NaCl, 5 mM MgCl2, 10% glycerol, 0.1% Nonidet P-40; bound proteins analysed by immunoblotting (anti-c-Myc, anti-GFP); only the target purified

binding: binds
Molecule: Myc-epitope-tagged SPIRE1 (from UniProt Q08AE8-2 1-742)

binding: binds
B1: vYNE-SPIRE2 (natural protein, human, UniProt Q8WWL2 1-714, looked up)
chain: MARAGSCGGAAAGAGRPEPWELSLEEVLKAYEQPLNEEQAWAVCFQGCRGLRGSPGRRLRDTGDLLLRGDGSVGAREPEAAEPATMVVPLASSEAQTVQSLGFAIYRALDWGLDESEERELSPQLERLIDLMANNDSEDSGCGAADEGYGGPEEEEEAEGVPRSVRTFAQAMRLCAARLTDPRGAQAHYQAVCRALFVETLELRAFLARVREAKEMLQKLREDEPHLETPRAELDSLGHTDWARLWVQLMRELRRGVKLKKVQEQEFNPLPTEFQLTPFEMLMQDIRARNYKLRKVMVDGDIPPRVKKDAHELILDFIRSRPPLKQVSERRLRPLPPKQRSLHEKILEEIKQERRLRPVRGEGWAARGFGSLPCILNACSGDAKSTSCINLSVTDAGGSAQRPRPRVLLKAPTLAEMEEMNTSEEEESPCGEVTLKRDRSFSEHDLAQLRSEVASGLQSATHPPGGTEPPRPRAGSAHVWRPGSRDQGTCPASVSDPSHPLLSNRGSSGDRPEASMTPDAKHLWLEFSHPVESLALTVEEVMDVRRVLVKAEMEKFLQNKELFSSLKKGKICCCCRAKFPLFSWPPSCLFCKRAVCTSCSIKMKMPSKKFGHIPVYTLGFESPQRVSAAKTAPIQRRDIFQSLQGPQWQSVEEAFPHIYSHGCVLKDVCSECTSFVADVVRSSRKSVDVLNTTPRRSRQTQSLYIPNTRTLDFK
notes: human SPIRE2, cDNA AJ422077; also called SPIRE2 (BiFC); source: HEK293a, transfected, in living cells; not shown: enhanced Venus YFP N-terminus fragment (amino acids 1-173)
